No constants are given. Whether binding was seen depends on the method and setting. Binding can be weak; no strength is given.
Target: PTPN3 PDZ domain (PTPN3-PDZ) (human) (UniProt P26045)
Assay: crystal structure; co-crystallisation, PTPN3-PDZ and peptide mixed 1:2 in 20 mM HEPES pH 8, 150 mM NaCl, 0.5 mM TCEP; sitting drop, 18°C, 20% PEG 3350; both purified

Amino acid sequences for entries named in this document (tags omitted). A change or cut given only in a name is not applied to a line headed by its entry.
UniProt P26045: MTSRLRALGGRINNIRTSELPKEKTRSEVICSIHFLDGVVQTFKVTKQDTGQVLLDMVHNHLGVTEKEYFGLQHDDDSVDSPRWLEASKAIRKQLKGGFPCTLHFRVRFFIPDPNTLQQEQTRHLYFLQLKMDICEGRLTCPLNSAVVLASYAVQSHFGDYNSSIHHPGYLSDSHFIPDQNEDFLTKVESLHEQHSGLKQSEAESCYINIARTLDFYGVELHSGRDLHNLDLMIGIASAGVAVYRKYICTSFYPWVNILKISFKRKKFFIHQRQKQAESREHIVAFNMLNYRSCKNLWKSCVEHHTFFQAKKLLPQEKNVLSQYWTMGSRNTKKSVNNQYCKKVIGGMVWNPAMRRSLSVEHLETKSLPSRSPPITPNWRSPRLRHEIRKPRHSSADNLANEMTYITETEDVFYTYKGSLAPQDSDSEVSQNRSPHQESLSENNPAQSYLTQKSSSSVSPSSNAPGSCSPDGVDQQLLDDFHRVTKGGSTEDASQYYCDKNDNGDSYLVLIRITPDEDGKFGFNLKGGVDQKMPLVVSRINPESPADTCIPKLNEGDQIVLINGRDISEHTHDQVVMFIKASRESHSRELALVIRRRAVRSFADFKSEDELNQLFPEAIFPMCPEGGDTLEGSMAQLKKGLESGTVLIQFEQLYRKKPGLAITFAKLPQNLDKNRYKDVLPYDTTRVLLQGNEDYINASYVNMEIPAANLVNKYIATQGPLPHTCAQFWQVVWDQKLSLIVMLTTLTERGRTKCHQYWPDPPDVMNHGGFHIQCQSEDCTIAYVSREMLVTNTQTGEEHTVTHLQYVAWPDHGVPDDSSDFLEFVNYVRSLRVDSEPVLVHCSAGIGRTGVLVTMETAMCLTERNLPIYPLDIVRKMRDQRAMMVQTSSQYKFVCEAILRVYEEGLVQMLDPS

For RQNRVDSKETEC [PBM-TACE peptide (last C-terminal 12 residues of TACE)], the binding was “binds”.

— PMC10185773, “Interactions of the protein tyrosine phosphatase PTPN3 with viral and cellular partners through its PDZ domain: insights into structural determinants and phosphatase activity” (Frontiers in Molecular Biosciences, 2023)
